These are yes or no findings as the source states them, for the method shown. Binding seen in cells or lysates may run through a third protein. Here binding means that the protein was enriched with, or labelled near, the bait; the list need not be complete. Tags and fused reporters may be left off the sequences shown.
B1: Cmk2p (protein, UniProt P22517 1-447)
chain: MPKESEVINSEFHVDVQDPERLNGHPVAKFINKLSGQPESYVNRTNYIFGRTLGAGSFGVVRQARKLSTNEDVAIKILLKKALQGNNVQLQMLYEELSILQKLSHPNIVSFKDWFESKDKFYIVTQLATGGELFDRILSRGKFTEVDAVEIIVQILGAVEYMHSKNVVHRDLKPENVLYVDKSENSPLVIADFGIAKQLKGEEDLIYKAAGSLGYVAPEVLTQDGHGKPCDIWSIGVITYTLLCGYSPFIAESVEGFMEECTASRYPVTFHMPYWDNISIDVKRFILKALRLNPADRPTATELLDDPWITSKRVETSNILPDVKKGFSLRKKLRDAIEIVKLNNRIKRLRNMYSLGDDGDNDIEENSLNESLLDGVTHSLDDLRLQSQKKGGELTEEQMKLKSALTKDAFVQIVKAATKNKHKVLAGEEEDDSKKTLHDDRESKSED
B2: Tfg1p (protein, UniProt P41895 1-735)
chain: MSRRNPPGSRNGGGPTNASPFIKRDRMRRNFLRMRMGQNGSNSSSPGVPNGDNSRGSLVKKDDPEYAEEREKMLLQIGVEADAGRSNVKVKDEDPNEYNEFPLRAIPKEDLENMRTHLLKFQSKKKINPVTDFHLPVRLHRKDTRNLQFQLTRAEIVQRQKEISEYKKKAEQERSTPNSGGMNKSGTVSLNNTVKDGSQTPTVDSVTKDNTANGVNSSIPTVTGSSVPPASPTTVSAVESNGLSNGSTSAANGLDGNASTANLANGRPLVTKLEDAGPAEDPTKVGMVKYDGKEVTNEPEFEEGTMDPLADVAPDGGGRAKRGNLRRKTRQLKVLDENAKKLRFEEFYPWVMEDFDGYNTWVGSYEAGNSDSYVLLSVEDDGSFTMIPADKVYKFTARNKYATLTIDEAEKRMDKKSGEVPRWLMKHLDNIGTTTTRYDRTRRKLKAVADQQAMDEDDRDDNSEVELDYDEEFADDEEAPIIDGNEQENKESEQRIKKEMLQANAMGLRDEEAPSENEEDELFGEKKIDEDGERIKKALQKTELAALYSSDENEINPYLSESDIENKENESPVKKEEDSDTLSKSKRSSPKKQQKKATNAHVHKEPTLRVKSIKNCVIILKGDKKILKSFPEGEWNPQTTKAVDSSNNASNTVPSPIKQEEGLNSTVAEREETPAPTITEKDIIEAIGDGKVNIKEFGKFIRRKYPGAENKKLMFAIVKKLCRKVGNDHMELKKE
B3: Tif4631p (protein, UniProt P39935 1-952)
chain: MTDETAHPTQSASKQESAALKQTGDDQQESQQQRGYTNYNNGSNYTQKKPYNSNRPHQQRGGKFGPNRYNNRGNYNGGGSFRGGHMGANSSNVPWTGYYNNYPVYYQPQQMAAAGSAPANPIPVEEKSPVPTKIEITTKSGEHLDLKEQHKAKLQSQERSTVSPQPESKLKETSDSTSTSTPTPTPSTNDSKASSEENISEAEKTRRNFIEQVKLRKAALEKKRKEQLEGSSGNNNIPMKTTPENVEEKGSDKPEVTEKTKPAEEKSAEPEVKQETPAEEGEQGEKGQIKEESTPKVLTFAERLKLKKQQKEREEKTEGKENKEVPVQEETKSAIESAPVPPSEQVKEETEVAETEQSNIDESATTPAIPTKSDEAEAEVEAEAGDAGTKIGLEAEIETTTDETDDGTNTVSHILNVLKDATPIEDVFSFNYPEGIEGPDIKYKKEHVKYTYGPTFLLQFKDKLNVKADAEWVQSTASKIVIPPGMGRGNRSRDSGRFGNNSSRGHDFRNTSVRNMDDRANSRTSSKRRSKRMNDDRRSNRSYTSRRDRERGSYRNEEKREDDKPKEEVAPLVPSANRWVPKFKSKKTEKKLAPDGKTELLDKDEVERKMKSLLNKLTLEMFDAISSEILAIANISVWETNGETLKAVIEQIFLKACDEPHWSSMYAQLCGKVVKELNPDITDETNEGKTGPKLVLHYLVARCHAEFDKGWTDKLPTNEDGTPLEPEMMSEEYYAAASAKRRGLGLVRFIGFLYRLNLLTGKMMFECFRRLMKDLTDSPSEETLESVVELLNTVGEQFETDSFRTGQATLEGSQLLDSLFGILDNIIQTAKISSRIKFKLIDIKELRHDKNWNSDKKDNGPKTIQQIHEEEERQRQLKNNSRSNSRRTNNSSNRHSFRRDAPPASKDSFITTRTYSQRNSQRAPPPKEEPAAPTSTATNMFSALMGESDDEE
B4: Atp7p (protein, UniProt P30902 1-174)
chain: MSLAKSAANKLDWAKVISSLRITGSTATQLSSFKKRNDEARRQLLELQSQPTEVDFSHYRSVLKNTSVIDKIESYVKQYKPVKIDASKQLQVIESFEKHAMTNAKETESLVSKELKDLQSTLDNIQSARPFDELTVDDLTKIKPEIDAKVEEMVKKGKWDVPGYKDRFGNLNVM
B5: Sti1p (protein, UniProt P15705 1-589)
chain: MSLTADEYKQQGNAAFTAKDYDKAIELFTKAIEVSETPNHVLYSNRSACYTSLKKFSDALNDANECVKINPSWSKGYNRLGAAHLGLGDLDEAESNYKKALELDASNKAAKEGLDQVHRTQQARQAQPDLGLTQLFADPNLIENLKKNPKTSEMMKDPQLVAKLIGYKQNPQAIGQDLFTDPRLMTIMATLMGVDLNMDDINQSNSMPKEPETSKSTEQKKDAEPQSDSTTSKENSSKAPQKEESKESEPMEVDEDDSKIEADKEKAEGNKFYKARQFDEAIEHYNKAWELHKDITYLNNRAAAEYEKGEYETAISTLNDAVEQGREMRADYKVISKSFARIGNAYHKLGDLKKTIEYYQKSLTEHRTADILTKLRNAEKELKKAEAEAYVNPEKAEEARLEGKEYFTKSDWPNAVKAYTEMIKRAPEDARGYSNRAAALAKLMSFPEAIADCNKAIEKDPNFVRAYIRKATAQIAVKEYASALETLDAARTKDAEVNNGSSAREIDQLYYKASQQRFQPGTSNETPEETYQRAMKDPEVAAIMQDPVMQSILQQAQQNPAALQEHMKNPEVFKKIQTLIAAGIIRTGR
B6: Cmk1p (protein, UniProt P27466 1-446)
chain: MDDKVSEKESSPKQTEEDSEGKMAHVQPASYVNKKKYVFGKTLGAGTFGVVRQAKNTETGEDVAVKILIKKALKGNKVQLEALYDELDILQRLHHPNIVAFKDWFESKDKFYIITQLAKGGELFDRILKKGKFTEEDAVRILVEILSAVKYMHSQNIVHRDLKPENLLYIDKSDESPLVVADFGIAKRLKSDEELLYKPAGSLGYVAPEVLTQDGHGKPCDIWSIGVITYTLLCGYSAFRAERVQDFLDECTTGEYPVKFHRPYWDSVSNKAKQFILKALNLDPSKRPTAAELLEDPWIICTELKTHNLLPGLKEGLDARQKFRNSVERVRLNMKIQKLRDLYLEQTESDSDFDEGSQANGSVPPLKATDTSQLSKKLSEEEQSKLKSELTSKAFAQLVNTVLAEKEKFLNINRVCSSDSDLPGSDIKSLDEAKEKPEGKDTKTEE
B7: Scp160p (protein, UniProt P06105 1-1222)
chain: MSEEQTAIDSPPSTVEGSVETVTTIDSPSTTASTIAATAEEHPQLEKKPTPLPSLKDLPSLGSNAAFANVKVSWGPNMKPAVSNSPSPSPSAPSLTTGLGAKRMRSKNIQEAFTLDLQSQLSITKPELSRIVQSVKKNHDVSVESTLSKNARTFLVSGVAANVHEAKRELVKKLTKPINAVIEVPSKCKASIIGSGGRTIREISDAYEVKINVSKEVNENSYDEDMDDTTSNVSLFGDFESVNLAKAKILAIVKEETKNATIKLVVEDEKYLPYIDVSEFASDEGDEEVKVQFYKKSGDIVILGPREKAKATKTSIQDYLKKLASNLDEEKVKIPSKFQFLIDAEELKEKYNVIVTFPSTPDDELVSFVGLRDKVGEAITYARSSSKSYVVESLDISKAHSKNLTHAKNLIMYFTKYSVLKGLEESHPNVKISLPSIQSLPTAETVTIHISAKSDEANDIKAVRKELISFVNNIPPSETLVITDLDYELFGGSIKHCLLASESSVAFVQFGDYYPNDNSILLVALTEDEDFKPSIEEIQASLNKANESLNSLRTKQNNMETKTYEFSEEVQDSLFKPSSATWKLIMEDISEQEGHLQIKLHTPEENQLTVRGDEKAAKAANKIFESILNSPSSKSKMTVNIPANSVARLIGNKGSNLQQIREKFACQIDIPNEENNNASKDKTVEVTLTGLEYNLTHAKKYLAAEAKKWADIITKELIVPVKFHGSLIGPHGTYRNRLQEKYNVFINFPRDNEIVTIRGPSRGVNKAHEELKALLDFEMENGHKMVINVPAEHVPRIIGKNGDNINDIRAEYGVEMDFLQKSTDPKAQETGEVELEITGSRQNIKDAAKRVESIVAEASDFVTEVLKIDHKYHKSIVGSGGHILREIISKAGGEEIRNKSVDIPNADSENKDITVQGPQKFVKKVVEEINKIVKDAENSVTKTIDIPAERKGALIGPGGIVRRQLESEFNINLFVPNKDDPSGKITITGAPENVEKAEKKILNEIIRENFDREVDVPASIYEYVSERGAFIQKLRMDLSVNVRFGNTSKKANKLARAPIEIPLEKVCGSTEGENAEKTKFTIEEVGAPTSSEEGDITMRLTYEPIDLSSILSDGEEKEVTKDTSNDSAKKEEALDTAVKLIKERIAKAPSATYAGYVWGADTRRFNMIVGPGGSNIKKIREAADVIINVPRKSDKVNDVVYIRGTKAGVEKAGEMVLKSLRR
B8: Osh7p (protein, UniProt P38755 1-437)
chain: MALNKLKNIPSLTNSSHSSINGIASNAANSKPSGADTDDIDENDESGQSILLNIISQLKPGCDLSRITLPTFILEKKSMLERITNQLQFPDVLLEAHSNKDGLQRFVKVVAWYLAGWHIGPRAVKKPLNPILGEHFTAYWDLPNKQQAFYIAEQTSHHPPESAYFYMIPESNIRVDGVVVPKSKFLGNSSAAMMEGLTVLQFLDIKDANGKPEKYTLSQPNVYARGILFGKMRIELGDHMVIMGPKYQVDIEFKTKGFISGTYDAIEGTIKDYDGKEYYQISGKWNDIMYIKDLREKSSKKTVLFDTHQHFPLAPKVRPLEEQGEYESRRLWKKVTDALAVRDHEVATEEKFQIENRQRELAKKRAEDGVEFHSKLFRRAEPGEDLDYYIYKHIPEGTDKHEEQIRSILETAPILPGQTFTEKFSIPAYKKHGIQKN

Amino acid sequences for entries named in this document (tags omitted).
UniProt P07260: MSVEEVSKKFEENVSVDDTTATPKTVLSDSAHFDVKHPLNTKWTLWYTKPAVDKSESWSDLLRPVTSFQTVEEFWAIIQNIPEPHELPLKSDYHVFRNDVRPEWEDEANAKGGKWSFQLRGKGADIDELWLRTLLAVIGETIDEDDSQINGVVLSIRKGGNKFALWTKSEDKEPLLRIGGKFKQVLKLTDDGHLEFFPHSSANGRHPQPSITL
UniProt P38249: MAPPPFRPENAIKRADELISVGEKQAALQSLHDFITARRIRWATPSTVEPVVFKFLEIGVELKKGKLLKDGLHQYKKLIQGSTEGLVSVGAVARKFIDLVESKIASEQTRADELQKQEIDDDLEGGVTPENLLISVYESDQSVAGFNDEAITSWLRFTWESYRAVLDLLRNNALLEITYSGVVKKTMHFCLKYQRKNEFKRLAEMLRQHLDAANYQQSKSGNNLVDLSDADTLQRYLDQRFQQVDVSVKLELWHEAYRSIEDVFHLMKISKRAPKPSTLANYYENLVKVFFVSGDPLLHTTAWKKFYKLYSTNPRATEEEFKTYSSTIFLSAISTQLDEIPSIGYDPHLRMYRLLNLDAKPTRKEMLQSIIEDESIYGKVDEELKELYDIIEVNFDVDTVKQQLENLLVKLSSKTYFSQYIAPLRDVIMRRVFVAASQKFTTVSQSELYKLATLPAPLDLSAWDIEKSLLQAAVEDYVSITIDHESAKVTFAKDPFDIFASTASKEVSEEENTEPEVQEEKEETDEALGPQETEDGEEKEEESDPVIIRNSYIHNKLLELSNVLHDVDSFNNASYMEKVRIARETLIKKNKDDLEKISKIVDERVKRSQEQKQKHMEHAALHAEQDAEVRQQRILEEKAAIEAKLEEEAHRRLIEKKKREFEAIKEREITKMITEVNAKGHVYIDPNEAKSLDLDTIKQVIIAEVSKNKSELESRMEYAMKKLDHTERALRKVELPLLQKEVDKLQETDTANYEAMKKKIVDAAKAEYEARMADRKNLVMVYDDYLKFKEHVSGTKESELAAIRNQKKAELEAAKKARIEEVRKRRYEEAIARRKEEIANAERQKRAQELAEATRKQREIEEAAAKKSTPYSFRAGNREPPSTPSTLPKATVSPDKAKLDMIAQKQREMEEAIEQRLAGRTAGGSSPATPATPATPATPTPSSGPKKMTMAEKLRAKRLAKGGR

Biological target: T1, TAP-tagged Yhr087wp (S. cerevisiae) (UniProt P38804)
T1 sequence: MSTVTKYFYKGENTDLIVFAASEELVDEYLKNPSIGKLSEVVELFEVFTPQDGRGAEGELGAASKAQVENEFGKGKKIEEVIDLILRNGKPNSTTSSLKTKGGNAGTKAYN
Test: affinity purification with mass spectrometry; tandem affinity purification of Yhr087wp-TAP (IgG Sepharose, then calmodulin) from 6 L of exponential YPD culture transferred for 90 min to YP20; associated proteins identified by mass spectrometry (Protein Pilot and MASCOT)

binding, binds:
Cdc33p (from UniProt P07260 1-213)
Tif32p (from UniProt P38249 1-964)
B1
B2
B3
B4
B5
B6
B7
B8
